From ChEMBL document CHEMBL5137126, “Alliacane-Type Secondary Metabolites from Submerged Cultures of the Basidiomycete Clitocybe nebularis” (J Nat Prod, 2022)

Test system: Candida albicans
Experiment: Antifungal activity against Candida albicans DSM1665 assessed as inhibition of fungal growth incubated overnight by serial dilution method
Type: functional

Sequence: NYSTATIN
- MIC: 9.2 µg/mL
